# Reference: PMC6021371
# Chains of the proteins cited; added tags and fusions are not shown. Lines headed by an entry give the natural chain unless they say otherwise; changes in a name come on top.
# UniProt Q13263: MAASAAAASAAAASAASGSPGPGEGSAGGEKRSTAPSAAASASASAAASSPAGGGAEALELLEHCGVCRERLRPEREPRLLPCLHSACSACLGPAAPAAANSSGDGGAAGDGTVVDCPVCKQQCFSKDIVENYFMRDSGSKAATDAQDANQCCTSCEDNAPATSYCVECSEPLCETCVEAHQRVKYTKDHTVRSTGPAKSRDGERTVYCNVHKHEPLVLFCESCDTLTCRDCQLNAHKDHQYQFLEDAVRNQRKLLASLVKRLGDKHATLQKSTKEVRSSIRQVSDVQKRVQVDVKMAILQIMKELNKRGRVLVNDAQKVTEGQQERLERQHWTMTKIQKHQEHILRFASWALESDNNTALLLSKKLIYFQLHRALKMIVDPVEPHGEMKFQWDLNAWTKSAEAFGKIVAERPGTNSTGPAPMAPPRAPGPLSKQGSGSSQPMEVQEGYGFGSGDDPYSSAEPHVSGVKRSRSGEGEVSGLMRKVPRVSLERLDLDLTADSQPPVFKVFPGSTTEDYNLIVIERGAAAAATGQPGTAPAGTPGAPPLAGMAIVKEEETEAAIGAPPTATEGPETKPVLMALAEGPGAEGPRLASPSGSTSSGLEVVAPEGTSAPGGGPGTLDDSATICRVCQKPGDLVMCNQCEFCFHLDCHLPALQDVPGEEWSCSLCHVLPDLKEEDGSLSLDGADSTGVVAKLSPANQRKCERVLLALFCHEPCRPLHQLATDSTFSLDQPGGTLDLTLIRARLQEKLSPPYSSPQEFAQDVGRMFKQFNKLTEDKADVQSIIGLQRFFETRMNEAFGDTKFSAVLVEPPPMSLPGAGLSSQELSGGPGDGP
# UniProt Q9BX82: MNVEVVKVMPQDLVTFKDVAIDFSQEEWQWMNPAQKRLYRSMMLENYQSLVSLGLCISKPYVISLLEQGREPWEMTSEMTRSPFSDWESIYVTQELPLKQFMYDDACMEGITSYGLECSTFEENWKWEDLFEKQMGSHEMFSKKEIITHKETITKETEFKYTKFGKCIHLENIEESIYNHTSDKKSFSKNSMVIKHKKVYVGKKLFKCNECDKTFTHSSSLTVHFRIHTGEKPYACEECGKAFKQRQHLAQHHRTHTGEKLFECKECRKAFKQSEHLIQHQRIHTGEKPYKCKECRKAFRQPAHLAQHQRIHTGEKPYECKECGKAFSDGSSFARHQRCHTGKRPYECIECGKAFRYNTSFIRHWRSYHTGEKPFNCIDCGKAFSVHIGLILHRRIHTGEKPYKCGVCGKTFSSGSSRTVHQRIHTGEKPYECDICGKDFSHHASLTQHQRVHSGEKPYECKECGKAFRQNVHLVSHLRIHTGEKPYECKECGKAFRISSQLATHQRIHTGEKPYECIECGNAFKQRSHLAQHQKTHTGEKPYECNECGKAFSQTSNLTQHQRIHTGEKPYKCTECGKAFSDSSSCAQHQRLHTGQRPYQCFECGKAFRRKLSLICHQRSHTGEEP
# These are yes or no findings as the source states them, for the method shown. Binding seen in cells or lysates may run through a third protein. Some binding calls cover weakened binding; strength is not graded here.
# Legend:
# [1] = biological target: KRAB-Interacting Protein 1 (KAP1), Myc-tagged (UniProt Q13263); assay: co-IP; GES1 cells co-transfected for 48 h; lysis in RIPA buffer with sonication; immunoprecipitation with anti-Myc antibody and protein-G beads overnight at 4 °C; Western blot with anti-Flag or anti-GFP
# [2] = biological target: KRAB-Interacting Protein 1 (KAP1), Myc-tagged (UniProt Q13263); assay: co-IP; HEK293T cells expressing the KRAB-domain of ZNF471 and KAP1; no further conditions told for this cell line
binding [1],binding [2],Substance
binds,binds,KRAB-domain of ZNF471 fused with GFP-tag (from UniProt Q9BX82 14-85) (domain or fragment)
binds,,"Zinc-finger protein 471 (ZNF471), full length, Flag-tagged (from UniProt Q9BX82 1-626)"
